Assay results: article PMC5906478
Results are given in words; binding and its absence hold for the method and conditions named. For some of these results: Binding seen in cells or lysates may run through a third protein. Some binding calls cover weakened binding; strength is not graded here.

By UniProt entry, the sequences of proteins in these tests, tags left out. Where a name states a change or a piece, a line headed by the entry shows the natural chain unless it says otherwise. Residues count along the entry.
UniProt Q07021, residues 74-282: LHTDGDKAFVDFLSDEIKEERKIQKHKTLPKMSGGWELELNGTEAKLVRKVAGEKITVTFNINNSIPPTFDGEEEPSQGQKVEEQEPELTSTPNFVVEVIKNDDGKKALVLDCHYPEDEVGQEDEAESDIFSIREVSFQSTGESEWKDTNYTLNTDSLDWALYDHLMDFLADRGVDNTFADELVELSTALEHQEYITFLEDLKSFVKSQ
UniProt P67809: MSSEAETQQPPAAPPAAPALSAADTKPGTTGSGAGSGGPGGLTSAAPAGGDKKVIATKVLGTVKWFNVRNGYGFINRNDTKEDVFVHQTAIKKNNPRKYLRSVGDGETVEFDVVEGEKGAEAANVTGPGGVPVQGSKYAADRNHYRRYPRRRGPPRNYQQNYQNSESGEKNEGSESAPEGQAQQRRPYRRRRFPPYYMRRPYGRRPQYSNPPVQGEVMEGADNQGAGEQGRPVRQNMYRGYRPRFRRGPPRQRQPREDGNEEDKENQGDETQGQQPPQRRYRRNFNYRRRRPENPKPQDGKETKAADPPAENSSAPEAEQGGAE
UniProt Q92973: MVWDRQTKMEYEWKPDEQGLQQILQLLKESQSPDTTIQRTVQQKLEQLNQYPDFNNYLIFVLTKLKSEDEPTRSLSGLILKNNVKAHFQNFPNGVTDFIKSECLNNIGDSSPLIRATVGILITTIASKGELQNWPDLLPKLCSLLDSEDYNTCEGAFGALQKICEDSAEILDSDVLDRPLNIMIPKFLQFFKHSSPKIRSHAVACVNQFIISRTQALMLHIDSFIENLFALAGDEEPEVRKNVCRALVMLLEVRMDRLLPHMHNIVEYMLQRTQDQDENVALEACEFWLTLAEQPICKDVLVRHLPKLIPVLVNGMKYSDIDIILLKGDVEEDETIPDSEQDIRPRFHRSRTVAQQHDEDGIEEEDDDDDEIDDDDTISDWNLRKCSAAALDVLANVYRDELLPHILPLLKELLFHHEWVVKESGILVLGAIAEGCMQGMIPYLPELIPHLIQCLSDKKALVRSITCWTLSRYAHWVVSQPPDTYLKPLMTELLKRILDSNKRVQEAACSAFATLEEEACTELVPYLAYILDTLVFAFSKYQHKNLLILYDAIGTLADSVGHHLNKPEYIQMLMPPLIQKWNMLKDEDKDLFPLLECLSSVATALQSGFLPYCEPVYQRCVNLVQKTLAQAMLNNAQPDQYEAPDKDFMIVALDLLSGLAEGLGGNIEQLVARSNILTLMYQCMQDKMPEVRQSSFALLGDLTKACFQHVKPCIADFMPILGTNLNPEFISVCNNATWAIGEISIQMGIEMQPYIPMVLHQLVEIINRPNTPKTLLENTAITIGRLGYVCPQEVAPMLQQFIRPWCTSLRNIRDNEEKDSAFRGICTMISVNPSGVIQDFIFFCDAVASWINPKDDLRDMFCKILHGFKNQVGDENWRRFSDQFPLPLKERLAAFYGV

What was measured:
GST-YBAP1 [1] = target: GST-YBAP1 (UniProt Q07021); assay: pull-down; FLAG-tagged YB-1 and fragments translated in wheat germ extract, incubated with 4 μg GST or GST-YBAP1 in 450 μl buffer E (50 mM Tris-HCl pH 7.5, 150 mM NaCl, 20 mM EDTA, 0.5% Nonidet P-40), 15 min 30 °C then 20 min on ice; glutathione-Sepharose 1 h 4 °C; anti-FLAG immunoblot; only the target purified
[2] = target: YB-1 (endogenous, HeLa cells) (human (endogenous in HeLa)) (UniProt P67809); assay: co-IP; HeLa S3 cell lysates in buffer A (50 mM Tris-HCl pH 7.5, 150 mM NaCl, 5 mM MgCl2, 0.5% Nonidet P-40), treated with or without RNase A; anti-YB-1 IgG or control rabbit IgG on protein G-Sepharose, 1 h at 4 °C; eluted with antigen peptide; immunoblot
[3] = target: FLAG-transportin 1 expressed in HeLa cells (pCMV-3xFLAG-TRN1) (UniProt Q92973); assay: co-IP; HeLa cells transfected with pCMV-3xFLAG-TRN1 or empty vector; lysis in buffer C with 0.5% SDS, sonicated; anti-FLAG M2 affinity gel 2 h at 4 °C; eluted with 3xFLAG peptide; immunoblot for YB-1 and FLAG
[4] = target: FLAG-transportin 1 (recombinant protein) (UniProt Q92973); assay: co-IP; recombinant YB-1-His and FLAG-transportin 1 with increasing amounts of GST-YBAP1 in 200 μl buffer D (buffer A with 1% BSA), on ice 20 min; anti-FLAG M2 affinity gel 1 h 4 °C; eluted with 3xFLAG peptide; immunoblot; both purified
GST-YBAP1 [5] = target: GST-YBAP1 (UniProt Q07021); assay: pull-down; recombinant YB-1-His with GST-YBAP1 or GST and increasing amounts of FLAG-transportin 1 in buffer D (buffer A with 1% BSA), on ice 20 min; glutathione-Sepharose 1 h 4 °C; eluted with 20 mM glutathione; immunoblot; both purified

Full-length YB-1 (wild-type, WT), C-terminally FLAG-tagged, in vitro translated (from UniProt P67809 1-324)
binding (GST-YBAP1 [1]): binds

Y-box protein-associated acidic protein YBAP1/C1QBP (endogenous, HeLa cells) (from UniProt Q07021 74-282)
binding [2]: binds

YB-1 (endogenous, HeLa cells) (from UniProt P67809 1-324)
binding [3]: binds

YB-1 C2 region (first two alternating A/B regions), C-terminally FLAG-tagged, in vitro translated (from UniProt P67809 129-229) (domain or fragment)
binding (GST-YBAP1 [1]): binds

YB-1 cold shock domain (CSD), C-terminally FLAG-tagged, in vitro translated (from UniProt P67809 61-125) (domain or fragment)
binding (GST-YBAP1 [1]): no binding (tested: 4 μg of GST-YBAP1 in 450 μl)

YB-1-His (from UniProt P67809 1-324)
binding [4]: binds
binding (GST-YBAP1 [5]): binds
